Data from patent publication US11732018B2, “Cancer antigen helper peptide” (priority 2009, dated 2023).
At least one peptide structure holds a part that was inferred or is arguable (an end, a ring closure or a residue). Ends that are not written are not given here.

Tested on: WT1-expressing C1498 leukemia cells
Assay: Tumor implantation experiment
Assay type: in vivo, mouse
Conditions: up to the 29th day after subcutaneous implantation; FIG. 8

Sequence: WAPVLDFAPPGASAYGSL [WT135]
- disease-free survival rate, immunized group versus control group: significant difference (p<0.05)
